# No constants are given. Whether binding was seen depends on the method and setting. Binding seen in cells or lysates may run through a third protein. Some entries that bind do so weakly or less than the wild type. For some of these results: Tags and fused reporters may be left off the sequences shown.
# The chains behind the UniProt entries cited, without tags or fusion partners. Residues count along the entry.
# UniProt O55005, residues 26-1651: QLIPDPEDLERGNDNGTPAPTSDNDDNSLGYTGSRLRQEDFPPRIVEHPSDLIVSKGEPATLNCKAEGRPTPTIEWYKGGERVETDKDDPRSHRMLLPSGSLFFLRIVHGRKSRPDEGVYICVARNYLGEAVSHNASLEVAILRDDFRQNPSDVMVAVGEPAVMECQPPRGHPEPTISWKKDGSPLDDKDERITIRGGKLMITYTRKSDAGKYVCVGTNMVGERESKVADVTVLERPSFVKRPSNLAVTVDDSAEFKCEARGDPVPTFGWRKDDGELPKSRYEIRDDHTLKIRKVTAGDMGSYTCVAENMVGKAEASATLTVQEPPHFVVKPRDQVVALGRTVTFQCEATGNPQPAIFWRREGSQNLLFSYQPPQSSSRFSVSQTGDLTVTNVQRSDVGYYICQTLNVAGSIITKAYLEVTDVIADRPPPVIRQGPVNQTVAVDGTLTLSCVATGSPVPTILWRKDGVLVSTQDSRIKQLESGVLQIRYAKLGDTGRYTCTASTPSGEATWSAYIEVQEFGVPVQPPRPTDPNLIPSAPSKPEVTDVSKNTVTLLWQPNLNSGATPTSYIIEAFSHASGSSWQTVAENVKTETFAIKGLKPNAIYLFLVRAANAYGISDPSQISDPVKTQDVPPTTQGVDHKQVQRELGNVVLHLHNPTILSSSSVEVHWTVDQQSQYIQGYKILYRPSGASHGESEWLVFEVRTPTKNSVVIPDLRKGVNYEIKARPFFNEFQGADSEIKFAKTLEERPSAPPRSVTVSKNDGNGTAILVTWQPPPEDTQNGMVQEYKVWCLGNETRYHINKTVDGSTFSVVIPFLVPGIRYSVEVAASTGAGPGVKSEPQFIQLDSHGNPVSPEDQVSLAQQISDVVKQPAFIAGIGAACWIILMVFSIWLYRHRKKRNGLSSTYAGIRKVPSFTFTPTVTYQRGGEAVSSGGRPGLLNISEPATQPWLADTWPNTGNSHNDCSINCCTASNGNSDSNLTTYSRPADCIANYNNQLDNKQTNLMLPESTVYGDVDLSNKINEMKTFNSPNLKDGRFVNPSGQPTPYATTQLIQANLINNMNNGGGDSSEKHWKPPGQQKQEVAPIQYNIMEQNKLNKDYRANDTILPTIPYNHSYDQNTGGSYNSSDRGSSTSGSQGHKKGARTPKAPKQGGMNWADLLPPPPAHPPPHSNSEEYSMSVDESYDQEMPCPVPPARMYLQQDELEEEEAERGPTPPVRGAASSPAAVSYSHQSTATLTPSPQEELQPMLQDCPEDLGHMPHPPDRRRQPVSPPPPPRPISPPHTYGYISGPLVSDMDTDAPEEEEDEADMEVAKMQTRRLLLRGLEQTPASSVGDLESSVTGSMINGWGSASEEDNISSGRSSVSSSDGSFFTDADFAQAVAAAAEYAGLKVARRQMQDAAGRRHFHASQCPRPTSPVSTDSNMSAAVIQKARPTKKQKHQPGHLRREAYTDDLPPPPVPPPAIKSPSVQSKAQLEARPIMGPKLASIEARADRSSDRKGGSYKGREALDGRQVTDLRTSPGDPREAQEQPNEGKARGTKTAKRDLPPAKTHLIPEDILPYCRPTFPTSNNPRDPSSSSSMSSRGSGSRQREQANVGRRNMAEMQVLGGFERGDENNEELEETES
# UniProt P12023, residues 18-770: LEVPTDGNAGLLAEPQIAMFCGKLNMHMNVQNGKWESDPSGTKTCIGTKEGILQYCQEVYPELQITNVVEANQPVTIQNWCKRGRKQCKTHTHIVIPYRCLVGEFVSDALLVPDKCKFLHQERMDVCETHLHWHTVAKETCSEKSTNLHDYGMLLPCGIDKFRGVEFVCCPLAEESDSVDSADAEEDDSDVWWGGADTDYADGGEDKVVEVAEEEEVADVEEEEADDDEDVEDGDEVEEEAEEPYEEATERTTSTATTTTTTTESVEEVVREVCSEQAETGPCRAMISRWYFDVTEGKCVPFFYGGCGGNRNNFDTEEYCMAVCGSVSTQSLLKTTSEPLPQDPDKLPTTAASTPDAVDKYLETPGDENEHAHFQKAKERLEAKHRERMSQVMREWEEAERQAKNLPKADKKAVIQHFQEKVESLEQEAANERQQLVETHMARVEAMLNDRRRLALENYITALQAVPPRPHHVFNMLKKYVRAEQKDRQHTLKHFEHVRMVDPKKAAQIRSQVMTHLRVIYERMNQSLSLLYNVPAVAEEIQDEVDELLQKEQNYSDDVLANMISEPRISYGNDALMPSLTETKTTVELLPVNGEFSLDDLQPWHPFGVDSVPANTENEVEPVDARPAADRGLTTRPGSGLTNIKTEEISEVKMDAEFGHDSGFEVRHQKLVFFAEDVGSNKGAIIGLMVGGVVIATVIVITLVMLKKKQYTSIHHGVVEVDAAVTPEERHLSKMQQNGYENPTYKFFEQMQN
# UniProt Q13153: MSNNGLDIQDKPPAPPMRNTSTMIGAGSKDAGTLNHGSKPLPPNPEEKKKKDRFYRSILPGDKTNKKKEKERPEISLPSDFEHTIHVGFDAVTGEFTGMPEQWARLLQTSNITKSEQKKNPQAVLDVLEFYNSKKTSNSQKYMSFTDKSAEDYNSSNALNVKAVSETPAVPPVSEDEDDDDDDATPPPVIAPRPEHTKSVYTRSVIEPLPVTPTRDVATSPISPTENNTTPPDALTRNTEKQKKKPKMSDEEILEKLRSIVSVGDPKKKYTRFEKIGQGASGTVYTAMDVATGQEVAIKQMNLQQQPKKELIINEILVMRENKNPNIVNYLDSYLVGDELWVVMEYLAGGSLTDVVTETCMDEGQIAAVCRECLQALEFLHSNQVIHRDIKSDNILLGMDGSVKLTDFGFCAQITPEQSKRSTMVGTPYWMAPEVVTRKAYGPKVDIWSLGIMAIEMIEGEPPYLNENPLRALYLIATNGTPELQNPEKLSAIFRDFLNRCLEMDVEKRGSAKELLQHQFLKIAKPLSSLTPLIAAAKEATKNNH
# UniProt O43639: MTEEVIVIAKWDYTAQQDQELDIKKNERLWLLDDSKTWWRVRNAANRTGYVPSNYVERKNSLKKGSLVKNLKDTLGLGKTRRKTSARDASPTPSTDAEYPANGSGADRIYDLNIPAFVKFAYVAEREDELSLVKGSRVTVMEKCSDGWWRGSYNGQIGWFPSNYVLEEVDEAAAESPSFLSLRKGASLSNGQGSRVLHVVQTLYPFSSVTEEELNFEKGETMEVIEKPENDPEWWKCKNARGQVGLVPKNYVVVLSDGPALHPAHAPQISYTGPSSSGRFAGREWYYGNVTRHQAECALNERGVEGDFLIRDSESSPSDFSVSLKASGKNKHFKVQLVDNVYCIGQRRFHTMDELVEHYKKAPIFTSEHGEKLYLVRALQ
# What was measured:
# [1] = target: T1, endogenous mouse Slit2 (mouse (endogenous in P0 brain)) (UniProt Q9R1B9); assay: co-IP; P0 WT mouse brain lysates; IP with an anti-Slit2 antibody, Western blot with anti-APP 22C11
# T1 sequence: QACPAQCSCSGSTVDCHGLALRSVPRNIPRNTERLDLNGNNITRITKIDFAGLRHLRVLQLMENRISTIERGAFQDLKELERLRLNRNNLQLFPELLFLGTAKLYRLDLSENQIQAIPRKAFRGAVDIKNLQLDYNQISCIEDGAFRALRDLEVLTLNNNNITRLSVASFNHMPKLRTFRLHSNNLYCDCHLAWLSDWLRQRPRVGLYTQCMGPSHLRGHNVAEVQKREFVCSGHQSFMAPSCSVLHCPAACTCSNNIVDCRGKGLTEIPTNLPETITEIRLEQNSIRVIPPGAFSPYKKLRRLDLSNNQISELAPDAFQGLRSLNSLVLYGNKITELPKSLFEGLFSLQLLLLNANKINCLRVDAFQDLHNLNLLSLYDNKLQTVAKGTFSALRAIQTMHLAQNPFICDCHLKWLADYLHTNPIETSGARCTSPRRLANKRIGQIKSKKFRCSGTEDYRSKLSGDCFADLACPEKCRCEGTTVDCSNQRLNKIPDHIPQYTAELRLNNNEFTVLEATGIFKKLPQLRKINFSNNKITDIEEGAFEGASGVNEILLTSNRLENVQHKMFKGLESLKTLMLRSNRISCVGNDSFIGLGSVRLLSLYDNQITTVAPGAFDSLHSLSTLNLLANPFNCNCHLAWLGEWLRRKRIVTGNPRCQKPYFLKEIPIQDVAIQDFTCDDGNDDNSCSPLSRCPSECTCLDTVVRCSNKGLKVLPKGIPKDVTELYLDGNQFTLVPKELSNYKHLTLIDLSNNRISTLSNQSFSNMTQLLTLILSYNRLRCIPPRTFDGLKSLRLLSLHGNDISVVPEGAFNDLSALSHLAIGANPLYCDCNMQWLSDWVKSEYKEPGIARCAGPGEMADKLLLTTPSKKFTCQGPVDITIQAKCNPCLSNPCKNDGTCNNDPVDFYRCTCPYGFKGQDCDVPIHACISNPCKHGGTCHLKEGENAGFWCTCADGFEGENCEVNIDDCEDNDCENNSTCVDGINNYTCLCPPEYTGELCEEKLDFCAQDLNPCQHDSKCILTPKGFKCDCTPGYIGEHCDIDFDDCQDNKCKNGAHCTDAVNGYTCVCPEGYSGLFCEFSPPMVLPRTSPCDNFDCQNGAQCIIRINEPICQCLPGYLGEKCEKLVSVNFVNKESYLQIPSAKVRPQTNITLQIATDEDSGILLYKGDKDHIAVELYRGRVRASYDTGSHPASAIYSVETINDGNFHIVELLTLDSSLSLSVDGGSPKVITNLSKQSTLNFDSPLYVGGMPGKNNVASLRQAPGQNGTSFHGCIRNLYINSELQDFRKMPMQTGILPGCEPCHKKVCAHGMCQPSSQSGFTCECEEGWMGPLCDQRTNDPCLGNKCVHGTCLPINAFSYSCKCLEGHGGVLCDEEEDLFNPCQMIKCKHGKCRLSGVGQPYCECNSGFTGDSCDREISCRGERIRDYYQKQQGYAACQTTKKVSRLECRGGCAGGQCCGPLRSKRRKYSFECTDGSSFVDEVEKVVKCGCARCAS
# HA-Fe65 = target: T2, HA-Fe65 (UniProt O00213); assay: co-IP; HEK293 cells transfected with the two constructs (single transfections as controls); IP with APPc, anti-HA or anti-Myc antibody, Western blot
# T2 sequence: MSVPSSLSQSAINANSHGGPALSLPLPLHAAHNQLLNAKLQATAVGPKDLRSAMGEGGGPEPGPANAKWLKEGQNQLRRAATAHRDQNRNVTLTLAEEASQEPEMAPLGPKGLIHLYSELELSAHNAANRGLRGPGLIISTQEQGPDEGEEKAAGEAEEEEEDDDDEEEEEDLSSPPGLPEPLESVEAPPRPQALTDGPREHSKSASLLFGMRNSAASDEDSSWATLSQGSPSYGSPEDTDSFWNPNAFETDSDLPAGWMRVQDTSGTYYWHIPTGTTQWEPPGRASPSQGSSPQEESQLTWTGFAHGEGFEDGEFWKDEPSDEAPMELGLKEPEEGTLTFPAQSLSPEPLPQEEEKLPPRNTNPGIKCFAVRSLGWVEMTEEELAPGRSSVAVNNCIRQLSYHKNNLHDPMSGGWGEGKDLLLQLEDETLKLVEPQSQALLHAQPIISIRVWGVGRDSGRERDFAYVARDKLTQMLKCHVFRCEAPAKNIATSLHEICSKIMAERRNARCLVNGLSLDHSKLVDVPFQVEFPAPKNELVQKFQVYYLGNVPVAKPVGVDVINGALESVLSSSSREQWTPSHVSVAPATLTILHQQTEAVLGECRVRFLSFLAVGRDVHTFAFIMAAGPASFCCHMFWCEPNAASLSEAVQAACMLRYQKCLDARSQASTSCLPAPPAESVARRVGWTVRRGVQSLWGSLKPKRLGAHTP
# [2] = target: T3, Human Slit2 tagged with c-Myc (Slit2-Myc) (human) (UniProt O94813); assay: as above
# T3 sequence: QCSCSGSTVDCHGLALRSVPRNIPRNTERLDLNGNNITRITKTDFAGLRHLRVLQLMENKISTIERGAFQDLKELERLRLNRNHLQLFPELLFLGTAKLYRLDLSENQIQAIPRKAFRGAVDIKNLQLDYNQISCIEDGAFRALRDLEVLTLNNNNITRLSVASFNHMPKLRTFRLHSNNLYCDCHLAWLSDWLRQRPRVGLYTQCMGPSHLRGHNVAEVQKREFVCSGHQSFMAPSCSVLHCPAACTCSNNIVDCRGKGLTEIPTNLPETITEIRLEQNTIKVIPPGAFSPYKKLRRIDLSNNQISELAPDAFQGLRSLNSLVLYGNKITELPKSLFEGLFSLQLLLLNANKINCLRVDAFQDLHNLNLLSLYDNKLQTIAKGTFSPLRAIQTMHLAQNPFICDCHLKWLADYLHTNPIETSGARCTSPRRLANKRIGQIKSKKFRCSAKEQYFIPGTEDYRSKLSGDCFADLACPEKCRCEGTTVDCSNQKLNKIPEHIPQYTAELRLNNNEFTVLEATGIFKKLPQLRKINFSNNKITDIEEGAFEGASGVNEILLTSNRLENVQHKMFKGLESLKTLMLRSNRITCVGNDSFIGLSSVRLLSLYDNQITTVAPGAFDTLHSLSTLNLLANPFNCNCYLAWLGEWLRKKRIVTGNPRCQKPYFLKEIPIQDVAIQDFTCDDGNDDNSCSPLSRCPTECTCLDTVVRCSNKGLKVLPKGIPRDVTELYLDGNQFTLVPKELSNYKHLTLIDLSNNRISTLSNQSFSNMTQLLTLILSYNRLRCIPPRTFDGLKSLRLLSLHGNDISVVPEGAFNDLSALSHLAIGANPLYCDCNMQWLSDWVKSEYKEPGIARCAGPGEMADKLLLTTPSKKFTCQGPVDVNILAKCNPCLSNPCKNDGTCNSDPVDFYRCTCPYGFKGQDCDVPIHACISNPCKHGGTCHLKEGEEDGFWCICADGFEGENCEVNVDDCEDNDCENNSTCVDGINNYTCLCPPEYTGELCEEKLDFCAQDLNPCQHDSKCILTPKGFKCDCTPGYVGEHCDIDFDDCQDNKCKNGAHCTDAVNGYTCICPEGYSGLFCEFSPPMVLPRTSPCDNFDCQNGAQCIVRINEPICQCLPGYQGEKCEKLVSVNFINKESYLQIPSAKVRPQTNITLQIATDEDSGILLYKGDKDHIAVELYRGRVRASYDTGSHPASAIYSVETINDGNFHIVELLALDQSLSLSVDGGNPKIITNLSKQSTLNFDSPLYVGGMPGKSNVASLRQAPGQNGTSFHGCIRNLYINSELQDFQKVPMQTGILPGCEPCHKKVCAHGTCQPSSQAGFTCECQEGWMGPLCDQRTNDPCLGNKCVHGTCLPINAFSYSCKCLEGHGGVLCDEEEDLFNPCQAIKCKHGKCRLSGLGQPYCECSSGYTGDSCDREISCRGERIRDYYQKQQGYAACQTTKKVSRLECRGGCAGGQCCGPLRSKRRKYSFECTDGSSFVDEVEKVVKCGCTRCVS
# [3] = target: Full-length (FL) human APP695 (human) (UniProt P05067); assay: as above
# [4] = target: Rat Robo1 tagged with the hemagglutinin (Robo1-HA) (rat) (UniProt O55005); assay: as above
Substance,binding [2],binding [3],further results
endogenous mouse APP (from UniProt P12023 18-770) (receptor),,,binding [1]: binds
Myc-Pak1 (from UniProt Q13153 1-545) (enzyme),,,binding (HA-Fe65): binds
endogenous APP of HEK293 cells (from UniProt P05067 18-770) (receptor),binds,,
HA-tagged Nck2 (Nck2-HA) (from UniProt O43639 1-380),,binds,
Rat Robo1 tagged with the hemagglutinin (Robo1-HA) (from UniProt O55005 26-1651) (receptor),,binds,
Full-length (FL) human APP695 (from UniProt P05067-4 18-695) (receptor),binds,,binding [4]: binds
